Values from PubChem BioAssay AID1259254 (NCATS, 2017)

- Aim: 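Finding genes that stop cells copying their DNA twice in one cycle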 (primary screen)
- Cells: human HCT116 colorectal cancer cells
- Reagent: single siRNA against human genes
- Time to read-out: 3 days
- Detection: 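Nuclei stained with Hoechst and imaged; cell-cycle phase assigned by DNA content; G2 share scaled per plate, non-targeting siRNA 0%, GMNN siRNA 100%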
- Scale: G2 robust z-score and G2 cells, % of GMNN control: higher = more G2 cells, more excess DNA replication
- Rule for the call: 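An siRNA counts as active if its G2 robust z-score lies at least 5 MADs above the screen median; here such calls match roughly 38% of GMNN control or more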
This is an unselected part of about 59,000 reagents tested. About 1,550 of all reagents (2.6%) were called active. 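G2 share is only a proxy for re-replication; each gene was hit by three separate siRNAs, and active genes were retested.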 Unmarked entries are inactive. Reagents against one gene are numbered here. Not all columns of the deposit are shown. Not given: the amount of reagent.

no.	gene symbol	reagent	G2 robust z-score	G2 cells, % of GMNN control
1	UBA3	1	-1.15	-5.12
2	UBA3	2	-0.0075	2.91
3	UBA3	3	-0.681	-1.82
4	DHDDS	1	-0.251	1.2
5	DHDDS	2	0.459	6.2
6	DHDDS	3	-1.18	-5.31
7	XRCC2	1	1.47	13.3
8	XRCC2	2	5.39 (active)	40.9
9	XRCC2	3	0.721	8.04
10	DYNLRB2	1	0.153	4.04
11	DYNLRB2	2	0.184	4.26
12	DYNLRB2	3	-0.593	-1.2
13	GSDME	1	-0.0908	2.33
14	GSDME	2	0.19	4.31
15	GSDME	3	-1.27	-5.99
16	WAPL	1	-1.16	-5.2
17	WAPL	2	0.635	7.43
18	WAPL	3	1.87	16.1
19	ORC4	1	-0.608	-1.31
20	ORC4	2	0.108	3.73
21	ORC4	3	0.673	7.7
22	POPDC2	1	0.591	7.13
23	POPDC2	2	0.123	3.83
24	POPDC2	3	-0.428	-0.0453
25	MTA1	1	-0.808	-2.72
26	MTA1	2	-0.932	-3.59
27	MTA1	3	-0.356	0.464
28	FAM184A	1	0.589	7.11
29	FAM184A	2	-0.445	-0.165
30	FAM184A	3	-0.569	-1.04

Active calls (from the list above):
gene symbol	reagent	G2 robust z-score	G2 cells, % of GMNN control
XRCC2	2	5.39 (active)	40.9

Additional records follow:
no.	gene symbol	reagent	G2 robust z-score	G2 cells, % of GMNN control
31	GFER	1	-0.417	0.0359
32	GFER	2	8.31 (active)	61.4
33	GFER	3	-0.629	-1.46
34	ASB18	1	-0.46	-0.272
35	ASB18	2	2.01	17.1
36	ASB18	3	2.17	18.2
37	ELAVL1	1	0.33	5.29
38	ELAVL1	2	-1.21	-5.55
39	ELAVL1	3	-0.729	-2.16
40	HRH2	1	-0.478	-0.397
41	HRH2	2	-0.297	0.881
42	HRH2	3	-0.0986	2.27
43	NUP210P1	1	1.72	15.1
44	NUP210P1	2	-0.944	-3.67
45	NUP210P1	3	-0.434	-0.0844
46	NGRNP1	1	0.0292	3.17
47	NGRNP1	2	0.12	3.81
48	NGRNP1	3	-0.0736	2.45
49	GABRB1	1	3.89	30.4
50	GABRB1	2	-0.537	-0.809
51	GABRB1	3	1.43	13
52	ZSCAN5DP	1	-0.746	-2.28
53	ZSCAN5DP	2	-0.103	2.24
54	ZSCAN5DP	3	2.08	17.6
55	CCP110	1	-0.734	-2.2
56	CCP110	2	0.18	4.23
57	CCP110	3	1.7	14.9
58	MPPE1	1	-0.238	1.29
59	MPPE1	2	0.694	7.85
60	MPPE1	3	3.48	27.4
61	NFE2L3	1	-1.47	-7.38
62	NFE2L3	2	-0.608	-1.31
63	NFE2L3	3	0.789	8.52
64	TEX13B	1	-0.0789	2.41
65	TEX13B	2	-0.647	-1.58
66	TEX13B	3	0.324	5.25
67	MAS1L	1	-1.14	-5.07
68	MAS1L	2	0.774	8.41
69	MAS1L	3	-0.994	-4.03
